Record: PubChem BioAssay AID1259308 (NCATS, 2017)
This is a random part of about 59,000 reagents tested. Over the whole deposit, about 1,510 (2.6%) were called active. 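Calls use total luciferase alone and ignore viability, so some active siRNAs may act by altering cell number.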 The numbers tell different reagents against one gene apart.

Assay: 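Genes whose loss raises luciferase production in HEK293 cells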 (primary screen)
Cells: human HEK293 embryonic kidney cells stably expressing firefly luciferase (HEK-CMV-Luc2-Hygro)
Knock-down reagent: single siRNA against human genes, 0.8 pmol siRNA per well
Duration: 72 h
Measurement: 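Reporter luminescence and viable-cell signal on separate replicate plates, given as percent of non-targeting control and median/MAD z-scores, plus per-cell luciferase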
Scale: total luciferase, z-score and total luciferase, % of control: higher = more reporter protein produced; luciferase per cell, z-score: higher = more reporter output per viable cell; viable cells, % of control: higher = more viable cells
Hit rule: 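Active when the median/MAD z-score for overall luciferase is greater than 3; a gene was taken forward for validation with new siRNAs if at least two of its three siRNAs passed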
Meaning of the calls: active = raised luciferase; inactive = no rise

no.	gene	siRNA no.	total luciferase, z-score	total luciferase, % of control	luciferase per cell, z-score	viable cells, % of control	Outcome
1	MYMK	1	0.636	94.5	-0.856	132	inactive
2	MYMK	2	0.143	84.7	0.449	84.1	inactive
3	MYMK	3	-1.31	55.7	-0.118	64.3	inactive
4	WDR86	1	-0.718	67.6	-0.482	85.8	inactive
5	WDR86	2	-0.447	73	-0.601	95.5	inactive
6	WDR86	3	-1.16	58.8	-0.309	71.3	inactive
7	LRRC43	1	-1.29	56.3	-1.06	83.2	inactive
8	LRRC43	2	-0.378	74.4	-0.479	94.3	inactive
9	LRRC43	3	-0.201	77.9	1.72	55.3	inactive
10	UTS2R	1	-0.278	76.4	-0.735	104	inactive
11	UTS2R	2	-0.211	77.7	0.17	83	inactive
12	UTS2R	3	-1.21	57.9	-0.953	83.1	inactive
13	FTL	1	2.67	135	2.92	70	inactive
14	FTL	2	-0.0665	80.6	-0.254	96.3	inactive
15	FTL	3	-2.12	39.7	-1.48	65.5	inactive
16	SLC25A1	1	0.103	83.9	-0.358	103	inactive
17	SLC25A1	2	-0.534	71.3	-0.944	102	inactive
18	SLC25A1	3	-0.18	78.3	-1.11	117	inactive
19	MYO19	1	-1.15	59.1	-1.06	87.3	inactive
20	MYO19	2	-0.868	64.6	-0.33	78.8	inactive
21	MYO19	3	2.69	135	1.9	91.7	inactive
22	POLE2	1	1.17	105	0.654	99	inactive
23	POLE2	2	-0.0901	80.1	0.193	85.1	inactive
24	POLE2	3	-0.194	78	-0.589	102	inactive
25	CEP250	1	-0.786	66.3	1.02	56.6	inactive
26	CEP250	2	-0.267	76.6	0.307	78.9	inactive
27	CEP250	3	-0.44	73.1	-0.11	84.1	inactive
28	SIPA1L3	1	-0.257	76.8	-0.728	104	inactive
29	SIPA1L3	2	-2.73	27.6	-3.42	75.8	inactive
30	SIPA1L3	3	-0.412	73.7	-1.11	110	inactive
31	PANX1	1	-0.761	66.8	-0.0459	75.5	inactive
32	PANX1	2	-0.892	64.2	-0.912	91.2	inactive
33	PANX1	3	-0.816	65.7	-0.274	78.9	inactive

Continued; the last 3 above are carried over.
no.	gene	siRNA no.	total luciferase, z-score	total luciferase, % of control	luciferase per cell, z-score	viable cells, % of control	Outcome
31	PANX1	1	-0.761	66.8	-0.0459	75.5	inactive
32	PANX1	2	-0.892	64.2	-0.912	91.2	inactive
33	PANX1	3	-0.816	65.7	-0.274	78.9	inactive
34	DNAJC7	1	0.238	86.6	0.358	88.1	inactive
35	DNAJC7	2	-2.1	40	-1.54	67.1	inactive
36	DNAJC7	3	0.639	94.6	0.976	81.7	inactive
37	OR4N4	1	0.0731	83.3	2.2	52.2	inactive
38	OR4N4	2	0.707	95.9	1.42	73.7	inactive
39	OR4N4	3	-0.791	66.2	-1.45	108	inactive
40	SFMBT1	1	2.45	131	1.63	95	inactive
41	SFMBT1	2	-0.414	73.6	-0.865	103	inactive
42	SFMBT1	3	0.746	96.7	-0.744	131	inactive
43	KLHL11	1	0.837	98.5	0.109	107	inactive
44	KLHL11	2	-0.496	72	-0.647	95.4	inactive
45	KLHL11	3	1.33	108	0.116	118	inactive
46	RPL29	1	-1.51	51.9	-0.296	62.6	inactive
47	RPL29	2	-0.923	63.5	-0.946	91.1	inactive
48	RPL29	3	1.11	104	0.566	100	inactive
49	SKP2	1	1.65	115	1.87	78.2	inactive
50	SKP2	2	0.894	99.7	0.369	101	inactive
51	SKP2	3	1.71	116	0.608	110	inactive
52	UBE2J1	1	-0.328	75.4	-0.752	103	inactive
53	UBE2J1	2	0.146	84.8	-0.317	103	inactive
54	UBE2J1	3	0.24	86.7	0.049	95.6	inactive
55	TMEFF1	1	-0.243	77	0.195	81.8	inactive
56	TMEFF1	2	-0.44	73.1	-0.139	84.8	inactive
57	TMEFF1	3	0.194	85.8	0.121	92.8	inactive
